1 molecule from patent publication US7973014B2, “Medicinal composition containing ginseng secondary glycosides, its preparation method and application” (National Institute of Pharmaceutical R&D Co., Ltd., priority 2005, dated 2011) can be followed below.

This data set has as its system acute myocardial infarction in dogs. The data set can be described thus: Range of acute myocardial infarction in dogs, N-BT staining. The class given is in vivo, dog. Particulars: 5 mg/kg. Here is the method: Test dogs were divided into the following 8 groups, 6 dogs per group: (1) blank control group, 3 ml/kg physiological saline; (2) 5 mg/kg Diltiazem group; (3) 200 mg/kg “Di'ao Xinxuekang” group; (4) 200 mg/kg ginseng root total ginsenosides (briefly referred as root total ginsenosides) group; (5) 200 mg/kg ginseng stem/leave total ginsenosides (briefly referred as stem/leave total ginsenosides) group; (6) 25 mg/kg total secondary ginsenosides group; (7) 50 mg/kg total secondary ginsenosides group; and (8) 100 mg/kg total secondary ginsenosides group. All test drugs were formulated with distilled water to have the same volume (3 ml/kg), and were administered through duodenum.
Recording was completed at 180 minutes after administration of drug, heart was taken out immediately, cardiac ventricle was cross-sectioned parallel to coronary sulcus under heart ligature to form 5 slices, which were placed in N-BT staining solution and stained at room temperature for 15 minutes. Infarction zone (N-BT non-staining zone) and non-infarction zone (N-BT staining zone) at both sides of each slice of cardiac muscle were measured by using a multimedia color pathologic image analysis system to calculate the area of each slice of cardiac muscle, the total area of the cardiac ventricle and the total area of the infarction zones. […]

Each structure is given as a SMILES string.

Molecule `COc1ccc([C@@H]2Sc3ccccc3N(CCN(C)C)C(=O)[C@@H]2OC(C)=O)cc1` [Diltiazem] had a Cardiac ventricle area of 5070.3 ± 405.8 mm^2 and a Heart area of 12221.5 ± 1980.9 mm^2.
